From paper PMC12466236
Results are given in words; binding and its absence hold for the method and conditions named. In cells and extracts the contact can be indirect. Some binding calls cover weakened binding; strength is not graded here.

Target: Ago1-FLAG-HA (human) (UniProt Q9UL18)
Assay: co-IP; anti-FLAG M2 IP of Ago1-FLAG-HA from nuclear extracts of transfected HEK-293T cells; IP buffer 20 mM Tris pH 7.3, 200 mM KCl, 0.2% Triton; overnight at 4 °C; without RNase treatment

B1: Drosha, endogenous (enzyme, UniProt Q9NRR4 1-1374)
chain: MMQGNTCHRMSFHPGRGCPRGRGGHGARPSAPSFRPQNLRLLHPQQPPVQYQYEPPSAPSTTFSNSPAPNFLPPRPDFVPFPPPMPPSAQGPLPPCPIRPPFPNHQMRHPFPVPPCFPPMPPPMPCPNNPPVPGAPPGQGTFPFMMPPPSMPHPPPPPVMPQQVNYQYPPGYSHHNFPPPSFNSFQNNPSSFLPSANNSSSPHFRHLPPYPLPKAPSERRSPERLKHYDDHRHRDHSHGRGERHRSLDRRERGRSPDRRRQDSRYRSDYDRGRTPSRHRSYERSRERERERHRHRDNRRSPSLERSYKKEYKRSGRSYGLSVVPEPAGCTPELPGEIIKNTDSWAPPLEIVNHRSPSREKKRARWEEEKDRWSDNQSSGKDKNYTSIKEKEPEETMPDKNEEEEEELLKPVWIRCTHSENYYSSDPMDQVGDSTVVGTSRLRDLYDKFEEELGSRQEKAKAARPPWEPPKTKLDEDLESSSESECESDEDSTCSSSSDSEVFDVIAEIKRKKAHPDRLHDELWYNDPGQMNDGPLCKCSAKARRTGIRHSIYPGEEAIKPCRPMTNNAGRLFHYRITVSPPTNFLTDRPTVIEYDDHEYIFEGFSMFAHAPLTNIPLCKVIRFNIDYTIHFIEEMMPENFCVKGLELFSLFLFRDILELYDWNLKGPLFEDSPPCCPRFHFMPRFVRFLPDGGKEVLSMHQILLYLLRCSKALVPEEEIANMLQWEELEWQKYAEECKGMIVTNPGTKPSSVRIDQLDREQFNPDVITFPIIVHFGIRPAQLSYAGDPQYQKLWKSYVKLRHLLANSPKVKQTDKQKLAQREEALQKIRQKNTMRREVTVELSSQGFWKTGIRSDVCQHAMMLPVLTHHIRYHQCLMHLDKLIGYTFQDRCLLQLAMTHPSHHLNFGMNPDHARNSLSNCGIRQPKYGDRKVHHMHMRKKGINTLINIMSRLGQDDPTPSRINHNERLEFLGDAVVEFLTSVHLYYLFPSLEEGGLATYRTAIVQNQHLAMLAKKLELDRFMLYAHGPDLCRESDLRHAMANCFEALIGAVYLEGSLEEAKQLFGRLLFNDPDLREVWLNYPLHPLQLQEPNTDRQLIETSPVLQKLTEFEEAIGVIFTHVRLLARAFTLRTVGFNHLTLGHNQRMEFLGDSIMQLVATEYLFIHFPDHHEGHLTLLRSSLVNNRTQAKVAEELGMQEYAITNDKTKRPVALRTKTLADLLESFIAALYIDKDLEYVHTFMNVCFFPRLKEFILNQDWNDPKSQLQQCCLTLRTEGKEPDIPLYKTLQTVGPSHARTYTVAVYFKGERIGCGKGPSIQQAEMGAAMDALEKYNFPQMAHQKRFIERKYRQELKEMRWEREHQEREPDETEDIKK
How did the binding turn out when B1 was run?
The binding was “binds”.
